No constants are given. Whether binding was seen depends on the method and setting. Some binding calls cover weakened binding; strength is not graded here. Where a sequence is shown, tags or fusion partners need not be part of it.
Assays:
[1] = biological target: T1, CD33 (Siglec 3) expressed in cells (human, UniProt P20138 18-364); test: immunofluorescence (anti-DDK-APC) of SJCRH30 cells stably transfected with CD33 and incubated with rhS100A9-DDK; vector-transfected cells as control (FIG. 3G)
T1 construct: whole, on cells; In the co-immunoprecipitations it stood in cell lysates; also called SJCRH30-CD33 cells; CD33 on MDS-MDSC

Amino acid sequences for entries named in this document (tags omitted). Residues count along the entry.
UniProt P20138, residues 18-364: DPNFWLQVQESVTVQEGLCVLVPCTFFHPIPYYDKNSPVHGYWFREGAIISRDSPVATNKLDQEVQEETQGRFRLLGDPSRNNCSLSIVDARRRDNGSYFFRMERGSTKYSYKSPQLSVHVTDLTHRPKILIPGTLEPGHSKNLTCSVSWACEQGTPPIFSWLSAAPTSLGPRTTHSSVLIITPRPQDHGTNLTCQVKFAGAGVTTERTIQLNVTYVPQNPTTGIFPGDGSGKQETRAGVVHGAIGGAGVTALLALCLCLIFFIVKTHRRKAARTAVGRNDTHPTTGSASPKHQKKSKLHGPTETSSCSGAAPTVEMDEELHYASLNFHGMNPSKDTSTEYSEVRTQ

[2] = biological target: T1, CD33 (Siglec 3) expressed in cells; test: immunofluorescence co-localization (CD33-FITC, anti-DDK-APC) on MDS-MDSC treated with 1 µg rhS100A9 (FIG. 3M)

B1: recombinant human (rh) S100A9 tagged with DDK (ligand)
chain: MTCKMSQLERNIETIINTFHQYSVKLGHPDTLNQGEFKELVRKDLQNFLKKENKNEKVIEHIMEDLDTNADKQLSFEEFIMLMARLTWASHEKMHEGDEGPGHHHKPGLGEGTPDYKDDDDK
binding [1]: binds
binding [2]: binds

Reference: patent US20230348555A1 (H LEE MOFFITT CANCER CENTER AND RESEARCH INSTITUTE, published 2023)
